Results are given in words; binding and its absence hold for the method and conditions named. Binding seen in cells or lysates may run through a third protein. Some results given as binding are weak or reduced against the parent protein; the word gives no strength.

Sequences of proteins named here, by UniProt entry; tags and fusion partners are left off.
UniProt O95863: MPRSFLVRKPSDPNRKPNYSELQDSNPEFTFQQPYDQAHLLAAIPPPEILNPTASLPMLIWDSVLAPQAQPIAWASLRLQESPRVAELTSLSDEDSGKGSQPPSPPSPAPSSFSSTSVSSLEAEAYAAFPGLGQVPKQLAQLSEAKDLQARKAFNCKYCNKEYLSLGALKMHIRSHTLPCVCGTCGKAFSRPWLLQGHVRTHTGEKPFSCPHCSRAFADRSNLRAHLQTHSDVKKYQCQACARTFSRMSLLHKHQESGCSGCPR
UniProt Q96KQ7: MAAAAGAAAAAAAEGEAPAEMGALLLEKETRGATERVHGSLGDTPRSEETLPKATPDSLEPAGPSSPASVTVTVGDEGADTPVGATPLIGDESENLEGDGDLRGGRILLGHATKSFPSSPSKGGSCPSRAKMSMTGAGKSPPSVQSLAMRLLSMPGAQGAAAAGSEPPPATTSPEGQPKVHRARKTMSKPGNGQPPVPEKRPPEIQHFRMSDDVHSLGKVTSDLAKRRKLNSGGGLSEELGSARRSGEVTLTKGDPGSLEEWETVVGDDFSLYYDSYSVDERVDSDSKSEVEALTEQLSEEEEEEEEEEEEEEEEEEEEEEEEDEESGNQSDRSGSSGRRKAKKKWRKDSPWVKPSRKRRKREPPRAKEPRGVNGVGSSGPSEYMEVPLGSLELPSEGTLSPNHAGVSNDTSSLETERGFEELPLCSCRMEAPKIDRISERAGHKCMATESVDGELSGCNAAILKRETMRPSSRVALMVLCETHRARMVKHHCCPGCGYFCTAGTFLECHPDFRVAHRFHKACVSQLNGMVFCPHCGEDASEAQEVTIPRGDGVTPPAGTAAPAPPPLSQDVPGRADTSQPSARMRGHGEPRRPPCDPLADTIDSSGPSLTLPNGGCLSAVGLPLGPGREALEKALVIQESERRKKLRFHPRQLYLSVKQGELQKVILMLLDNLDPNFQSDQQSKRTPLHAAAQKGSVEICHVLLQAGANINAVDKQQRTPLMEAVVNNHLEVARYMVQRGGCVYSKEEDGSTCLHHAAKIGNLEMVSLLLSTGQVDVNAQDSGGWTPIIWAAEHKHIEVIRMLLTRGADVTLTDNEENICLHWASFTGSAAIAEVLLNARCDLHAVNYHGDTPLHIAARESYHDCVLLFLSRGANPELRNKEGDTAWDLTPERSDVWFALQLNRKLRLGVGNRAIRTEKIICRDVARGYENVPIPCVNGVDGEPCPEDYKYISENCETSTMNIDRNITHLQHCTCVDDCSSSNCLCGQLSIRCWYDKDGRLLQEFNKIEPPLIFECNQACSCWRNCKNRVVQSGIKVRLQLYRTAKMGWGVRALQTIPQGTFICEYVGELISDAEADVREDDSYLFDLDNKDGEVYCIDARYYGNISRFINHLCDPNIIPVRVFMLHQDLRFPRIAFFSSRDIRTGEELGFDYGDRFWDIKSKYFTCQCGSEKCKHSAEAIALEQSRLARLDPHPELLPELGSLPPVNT

Binding data for 3 substances are collected here from article PMC4466657.

For assay [1], the target named is GFP-tagged Snail (human) (UniProt O95863). Put plainly: co-IP; HEK293T cells transiently transfected with Flag-tagged G9a and GFP-tagged Snail; cell extracts immunoprecipitated with Flag or GFP antibodies, Western blot.
In assay [2] the target is Flag-tagged G9a (UniProt Q96KQ7). Described as above.
The target in assay [3] is endogenous G9a (HN12 cells) (human (endogenous in HN12)) (UniProt Q96KQ7). Put plainly: co-IP; endogenous Snail and G9a immunoprecipitated from HN12 cells, Western blot.

With “Flag-tagged G9a (from UniProt Q96KQ7 1-1210) (enzyme)”, in assay [1], the binding result is listed as “binds”.
For the substance “GFP-tagged Snail (from UniProt O95863 1-264)”, the binding entry in assay [2] was “binds”.
With “endogenous Snail (HN12 cells) (from UniProt O95863 1-264)”, in assay [3], the binding result is given as “binds”.
